Reference: paper PMC6071684, “Defining the hydrophobic interactions that drive competence stimulating peptide (CSP)-ComD binding in Streptococcus pneumoniae” (Beilstein Journal of Organic Chemistry, 2018)
Where a SMILES comes first, the peptide text is derived from it. Where no end group is shown, it is not given here. [ ]: non-standard residue; d: D form. Phg = N[C@H](C(=O)O)c1ccccc1; Nle = CCCC[C@H](N)C(=O)O; Nva = CCC[C@H](N)C(=O)O

Experiment: Circular dichroism (CD) spectroscopy, helix content
Format: physicochemical
Details: 200 µM peptide in PBS pH 7.4 with 20% TFE, 25 °C, from mean residue ellipticity at 222 nm

Compared with `CC[C@H](C)[C@H](NC(=O)[C@H](Cc1ccccc1)NC(=O)[C@H](CC(=O)O)NC(=O)[C@H](CCCNC(=N)N)NC(=O)[C@H](Cc1ccccc1)NC(=O)[C@H](Cc1ccccc1)NC(=O)[C@H](CCCCN)NC(=O)[C@H](CO)NC(=O)[C@H](CC(C)C)NC(=O)[C@H](CCCNC(=N)N)NC(=O)[C@H](CCSC)NC(=O)[C@@H](N)CCC(=O)O)C(=O)N[C@@H](CC(C)C)C(=O)N[C@@H](CCC(N)=O)C(=O)N[C@@H](CCCNC(=N)N)C(=O)N[C@@H](CCCCN)C(=O)N[C@@H](CCCCN)C(=O)O` [CSP1, reference compound], `CC[C@H](C)[C@H](NC(=O)[C@H](Cc1ccccc1)NC(=O)[C@H](CC(=O)O)NC(=O)[C@H](CCCNC(=N)N)NC(=O)[C@H](Cc1ccccc1)NC(=O)[C@@H](NC(=O)[C@H](CCCCN)NC(=O)[C@H](CO)NC(=O)[C@H](CC(C)C)NC(=O)[C@H](CCCNC(=N)N)NC(=O)[C@H](CCSC)NC(=O)[C@@H](N)CCC(=O)O)c1ccccc1)C(=O)N[C@@H](CC(C)C)C(=O)N[C@@H](CCC(N)=O)C(=O)N[C@@H](CCCNC(=N)N)C(=O)N[C@@H](CCCCN)C(=O)N[C@@H](CCCCN)C(=O)O` [CSP1-F7FG] (H-EMRLSK[Phg]FRDFILQRKK-OH; N-terminus assumed) is higher in “Helicity (%)” value: 20.1% for the first, 26.3% for the second.

Compared with `CC[C@H](C)[C@H](NC(=O)[C@H](Cc1ccccc1)NC(=O)[C@H](CC(=O)O)NC(=O)[C@H](CCCNC(=N)N)NC(=O)[C@H](Cc1ccccc1)NC(=O)[C@H](CCc1ccccc1)NC(=O)[C@H](CCCCN)NC(=O)[C@H](CO)NC(=O)[C@H](CC(C)C)NC(=O)[C@H](CCCNC(=N)N)NC(=O)[C@H](CCSC)NC(=O)[C@@H](N)CCC(=O)O)C(=O)N[C@@H](CC(C)C)C(=O)N[C@@H](CCC(N)=O)C(=O)N[C@@H](CCCNC(=N)N)C(=O)N[C@@H](CCCCN)C(=O)N[C@@H](CCCCN)C(=O)O` [CSP1-F7HF], `CC[C@H](C)[C@H](NC(=O)[C@H](Cc1ccccc1)NC(=O)[C@H](CC(=O)O)NC(=O)[C@H](CCCNC(=N)N)NC(=O)[C@@H](NC(=O)[C@H](Cc1ccccc1)NC(=O)[C@H](CCCCN)NC(=O)[C@H](CO)NC(=O)[C@H](CC(C)C)NC(=O)[C@H](CCCNC(=N)N)NC(=O)[C@H](CCSC)NC(=O)[C@@H](N)CCC(=O)O)c1ccccc1)C(=O)N[C@@H](CC(C)C)C(=O)N[C@@H](CCC(N)=O)C(=O)N[C@@H](CCCNC(=N)N)C(=O)N[C@@H](CCCCN)C(=O)N[C@@H](CCCCN)C(=O)O` [CSP1-F8FG] (H-EMRLSKF[Phg]RDFILQRKK-OH; N-terminus assumed) is lower in “Helicity (%)” value: 26.7% for the first, 13.4% for the second.

First: CC[C@H](C)[C@H](NC(=O)[C@H](Cc1ccccc1)NC(=O)[C@H](CC(=O)O)NC(=O)[C@H](CCCNC(=N)N)NC(=O)[C@H](CCc1ccccc1)NC(=O)[C@H](Cc1ccccc1)NC(=O)[C@H](CCCCN)NC(=O)[C@H](CO)NC(=O)[C@H](CC(C)C)NC(=O)[C@H](CCCNC(=N)N)NC(=O)[C@H](CCSC)NC(=O)[C@@H](N)CCC(=O)O)C(=O)N[C@@H](CC(C)C)C(=O)N[C@@H](CCC(N)=O)C(=O)N[C@@H](CCCNC(=N)N)C(=O)N[C@@H](CCCCN)C(=O)N[C@@H](CCCCN)C(=O)O [CSP1-F8HF]
Second: CC[C@H](C)[C@H](NC(=O)[C@@H](NC(=O)[C@H](CC(=O)O)NC(=O)[C@H](CCCNC(=N)N)NC(=O)[C@H](Cc1ccccc1)NC(=O)[C@H](Cc1ccccc1)NC(=O)[C@H](CCCCN)NC(=O)[C@H](CO)NC(=O)[C@H](CC(C)C)NC(=O)[C@H](CCCNC(=N)N)NC(=O)[C@H](CCSC)NC(=O)[C@@H](N)CCC(=O)O)c1ccccc1)C(=O)N[C@@H](CC(C)C)C(=O)N[C@@H](CCC(N)=O)C(=O)N[C@@H](CCCNC(=N)N)C(=O)N[C@@H](CCCCN)C(=O)N[C@@H](CCCCN)C(=O)O [CSP1-F11FG] (H-EMRLSKFFRD[Phg]ILQRKK-OH; N-terminus assumed)
The “Helicity (%)” value of the first is higher: 19.4% for the first, 15.9% for the second.

Compared with `CC[C@H](C)[C@H](NC(=O)[C@H](CCc1ccccc1)NC(=O)[C@H](CC(=O)O)NC(=O)[C@H](CCCNC(=N)N)NC(=O)[C@H](Cc1ccccc1)NC(=O)[C@H](Cc1ccccc1)NC(=O)[C@H](CCCCN)NC(=O)[C@H](CO)NC(=O)[C@H](CC(C)C)NC(=O)[C@H](CCCNC(=N)N)NC(=O)[C@H](CCSC)NC(=O)[C@@H](N)CCC(=O)O)C(=O)N[C@@H](CC(C)C)C(=O)N[C@@H](CCC(N)=O)C(=O)N[C@@H](CCCNC(=N)N)C(=O)N[C@@H](CCCCN)C(=O)N[C@@H](CCCCN)C(=O)O` [CSP1-F11HF], `CCCC[C@H](NC(=O)[C@H](Cc1ccccc1)NC(=O)[C@H](CC(=O)O)NC(=O)[C@H](CCCNC(=N)N)NC(=O)[C@H](Cc1ccccc1)NC(=O)[C@H](Cc1ccccc1)NC(=O)[C@H](CCCCN)NC(=O)[C@H](CO)NC(=O)[C@H](CC(C)C)NC(=O)[C@H](CCCNC(=N)N)NC(=O)[C@H](CCSC)NC(=O)[C@@H](N)CCC(=O)O)C(=O)N[C@@H](CC(C)C)C(=O)N[C@@H](CCC(N)=O)C(=O)N[C@@H](CCCNC(=N)N)C(=O)N[C@@H](CCCCN)C(=O)N[C@@H](CCCCN)C(=O)O` [CSP1-I12NL] (H-EMRLSKFFRDF[Nle]LQRKK-OH; N-terminus assumed) is lower in “Helicity (%)” value: 32.3% for the first, 24.7% for the second.

Going from `CCC[C@H](NC(=O)[C@H](Cc1ccccc1)NC(=O)[C@H](CC(=O)O)NC(=O)[C@H](CCCNC(=N)N)NC(=O)[C@H](Cc1ccccc1)NC(=O)[C@H](Cc1ccccc1)NC(=O)[C@H](CCCCN)NC(=O)[C@H](CO)NC(=O)[C@H](CC(C)C)NC(=O)[C@H](CCCNC(=N)N)NC(=O)[C@H](CCSC)NC(=O)[C@@H](N)CCC(=O)O)C(=O)N[C@@H](CC(C)C)C(=O)N[C@@H](CCC(N)=O)C(=O)N[C@@H](CCCNC(=N)N)C(=O)N[C@@H](CCCCN)C(=O)N[C@@H](CCCCN)C(=O)O` [CSP1-I12NV] (H-EMRLSKFFRDF[Nva]LQRKK-OH; N-terminus assumed) to `CCCC[C@H](NC(=O)[C@H](CCCNC(=N)N)NC(=O)[C@H](CCSC)NC(=O)[C@@H](N)CCC(=O)O)C(=O)N[C@@H](CO)C(=O)N[C@@H](CCCCN)C(=O)N[C@@H](Cc1ccccc1)C(=O)N[C@@H](Cc1ccccc1)C(=O)N[C@@H](CCCNC(=N)N)C(=O)N[C@@H](CC(=O)O)C(=O)N[C@@H](Cc1ccccc1)C(=O)N[C@H](C(=O)N[C@@H](CC(C)C)C(=O)N[C@@H](CCC(N)=O)C(=O)N[C@@H](CCCNC(=N)N)C(=O)N[C@@H](CCCCN)C(=O)N[C@@H](CCCCN)C(=O)O)[C@@H](C)CC` [CSP1-L4NL], the “Helicity (%)” value rises from 25.6% to 29.2%.

First: CCC[C@H](NC(=O)[C@H](CCCNC(=N)N)NC(=O)[C@H](CCSC)NC(=O)[C@@H](N)CCC(=O)O)C(=O)N[C@@H](CO)C(=O)N[C@@H](CCCCN)C(=O)N[C@@H](Cc1ccccc1)C(=O)N[C@@H](Cc1ccccc1)C(=O)N[C@@H](CCCNC(=N)N)C(=O)N[C@@H](CC(=O)O)C(=O)N[C@@H](Cc1ccccc1)C(=O)N[C@H](C(=O)N[C@@H](CC(C)C)C(=O)N[C@@H](CCC(N)=O)C(=O)N[C@@H](CCCNC(=N)N)C(=O)N[C@@H](CCCCN)C(=O)N[C@@H](CCCCN)C(=O)O)[C@@H](C)CC [CSP1-L4NV] (H-EMR[Nva]SKFFRDFILQRKK-OH; N-terminus assumed)
Second: CCCC[C@H](NC(=O)[C@@H](NC(=O)[C@H](Cc1ccccc1)NC(=O)[C@H](CC(=O)O)NC(=O)[C@H](CCCNC(=N)N)NC(=O)[C@H](Cc1ccccc1)NC(=O)[C@H](Cc1ccccc1)NC(=O)[C@H](CCCCN)NC(=O)[C@H](CO)NC(=O)[C@H](CC(C)C)NC(=O)[C@H](CCCNC(=N)N)NC(=O)[C@H](CCSC)NC(=O)[C@@H](N)CCC(=O)O)[C@@H](C)CC)C(=O)N[C@@H](CCC(N)=O)C(=O)N[C@@H](CCCNC(=N)N)C(=O)N[C@@H](CCCCN)C(=O)N[C@@H](CCCCN)C(=O)O [CSP1-L13NL]
The “Helicity (%)” value of the first is higher: 34.0% for the first, 17.3% for the second.

Going from `CCC[C@H](NC(=O)[C@@H](NC(=O)[C@H](Cc1ccccc1)NC(=O)[C@H](CC(=O)O)NC(=O)[C@H](CCCNC(=N)N)NC(=O)[C@H](Cc1ccccc1)NC(=O)[C@H](Cc1ccccc1)NC(=O)[C@H](CCCCN)NC(=O)[C@H](CO)NC(=O)[C@H](CC(C)C)NC(=O)[C@H](CCCNC(=N)N)NC(=O)[C@H](CCSC)NC(=O)[C@@H](N)CCC(=O)O)[C@@H](C)CC)C(=O)N[C@@H](CCC(N)=O)C(=O)N[C@@H](CCCNC(=N)N)C(=O)N[C@@H](CCCCN)C(=O)N[C@@H](CCCCN)C(=O)O` [CSP1-L13NV] (H-EMRLSKFFRDFI[Nva]QRKK-OH; N-terminus assumed) to EMRISKFFRDFILQRKK-OH [CSP1-L4I], the “Helicity (%)” value rises from 30.9% to 34.8%.

Going from EMRLSKFYRDFILQRKK-OH [CSP1-F8Y] to EMRLSKYFRDFILQRKK-OH [CSP1-F7Y], the “Helicity (%)” value rises from 25.7% to 31.8%.

For EMRVSKFFRDFILQRKK-OH [CSP1-L4V], the “Helicity (%)” value was 30.1%.
